Test results published in PubChem BioAssay AID493014 (National Center for Advancing Translational Sciences (NCATS), 2011).
The list shows a part of the results. Shown are side measurements of this screen, not its main read-out; they come without a call. Compounds called inactive in the main read-out are mostly missing here. Words in brackets tell the shape of the fitted curve; partial curves, single points and poor fits give uncertain potencies.

Assay: qHTS Assay to Find Inhibitors of Chronic Active B-Cell Receptor Signaling
Conditions: ABC-DLBCL IkBa-CBG/CBR reporter, luminescence ratio (green luciferase fused to IkBa over red control in TMD8 lymphoma cells), 4 h
Outline: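 TMD8 ABC-DLBCL cells carrying doxycycline-inducible green luciferase fused to IkappaBalpha plus unfused red luciferase were exposed to compounds (up to 46 uM) for 4 hrs at 37C. Activity came from the overlap-corrected green/red luminescence ratio.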

[1] = measured here: CBR red luminescence, cell number
[2] = measured here: IkBa-CBG green luminescence

SMILES	AC50 [1]	AC50 [2]
COc1ccc(-c2csc(NC(=O)CN3C(=O)NC4(CCCC4)C3=O)n2)cc1	1.84 µM [falling, full curve]	–
CCCCc1nnc(SCC(=O)Nc2nccs2)n1C	15.8 µM [falling, partial curve, poor fit]	–
COc1ccc2c(c1OC)C(=O)OC2C1c2c(cc3c(c2OC)OCO3)CCN1C (configuration not stated)	4.11 µM [rising, full curve, poor fit]	–
COc1ccc(OC)c(NC(=O)c2nc3ccccc3s2)c1	35.5 µM [rising, partial curve, poor fit]	–
CC(=O)Nc1ccc(NC(=O)CCCSc2nc3ccccc3s2)cc1	0.0891 µM [rising, full curve, poor fit]	–
CCOc1cc(CNc2ccc3c(c2)OCCO3)cc(Br)c1OCC	12.6 µM [rising, partial curve]	12.6 µM [falling, partial curve]
CN1CCN(C(c2ccccn2)c2cc(Cl)c3cccnc3c2O)CC1 (configuration not stated)	–	3.98 µM [falling, full curve]
CCC(=O)Nc1nnc(CCc2ccccc2)s1	16.4 µM [falling, single point]	–
COc1nc(Nc2ccc(O)cc2)nc(OC(C(F)(F)F)C(F)(F)F)n1	6.51 µM [rising, partial curve, poor fit]	–
Cc1cccc(N=Nc2c(O)[nH]c3ccc(F)cc23)c1	10 µM [falling, partial curve]	–
CC(=O)NCCc1nc2cc(NC(=O)c3ccccc3Cl)ccc2n1C	17.8 µM [falling, single point]	–
CCOC(=O)c1c2c(c(=S)n(-c3ccccc3)c1N)CCC2	0.501 µM [falling, full curve, poor fit]	–
Cc1c(NC(=O)CSc2nc3ccccc3s2)c(=O)n(-c2ccccc2)n1C	6.51 µM [falling, single point]	–
O=C(/C=C/c1ccccc1)CC(O)(c1ccccc1)C(F)(F)F (configuration not stated)	29.1 µM [falling, single point]	–
CCCCN(C)C(=O)C1CCC(CNS(=O)(=O)c2ccc(Cl)cc2)CC1 (configuration not stated)	3.16 µM [rising, partial curve, poor fit]	–
CC(C)Oc1ccc(C(=O)NNC(=O)c2ccccc2C(=O)O)cc1	0.461 µM [falling, full curve]	–
Clc1ccc(CSc2nnc3ccccn23)c(Cl)c1	0.259 µM [rising, full curve, poor fit]	–
CC1CN(C(=O)CSc2nc(-c3ccc(F)cc3)cs2)CC(C)O1 (configuration not stated)	0.651 µM [rising, full curve, poor fit]	–
C/C(=N\NC(=O)c1cc(C)oc1C)c1ccc2c(c1)OCO2	10 µM [falling, partial curve, poor fit]	–
Fc1cc(F)nc(NCc2ccccc2)n1	35.5 µM [rising, single point]	–
CCOC(=O)c1c(Cc2ccc(Cl)cc2)c[nH]c1C	5.8 µM [rising, partial curve, poor fit]	–

A stretch taken from the entries so far, as a working copy:
SMILES	AC50 [1]	AC50 [2]
COc1ccc2c(c1OC)C(=O)OC2C1c2c(cc3c(c2OC)OCO3)CCN1C (configuration not stated)	4.11 µM [rising, full curve, poor fit]	–
COc1ccc(OC)c(NC(=O)c2nc3ccccc3s2)c1	35.5 µM [rising, partial curve, poor fit]	–
CC(=O)Nc1ccc(NC(=O)CCCSc2nc3ccccc3s2)cc1	0.0891 µM [rising, full curve, poor fit]	–
CCOc1cc(CNc2ccc3c(c2)OCCO3)cc(Br)c1OCC	12.6 µM [rising, partial curve]	12.6 µM [falling, partial curve]
CN1CCN(C(c2ccccn2)c2cc(Cl)c3cccnc3c2O)CC1 (configuration not stated)	–	3.98 µM [falling, full curve]
CCC(=O)Nc1nnc(CCc2ccccc2)s1	16.4 µM [falling, single point]	–
COc1nc(Nc2ccc(O)cc2)nc(OC(C(F)(F)F)C(F)(F)F)n1	6.51 µM [rising, partial curve, poor fit]	–
Cc1cccc(N=Nc2c(O)[nH]c3ccc(F)cc23)c1	10 µM [falling, partial curve]	–
CC(=O)NCCc1nc2cc(NC(=O)c3ccccc3Cl)ccc2n1C	17.8 µM [falling, single point]	–

(continued)

SMILES	AC50 [1]	AC50 [2]
CCc1ccc2c(CN3CCC(C(=O)OC)CC3)cc(=O)oc2c1	2.24 µM [rising, partial curve, poor fit]	–
O=C(CS(=O)(=O)c1ccc2ccccc2c1)N1CCCCCC1	5.62 µM [falling, single point]	–
COc1ccc(NC(=O)c2ccccc2NC(=O)CSc2ccc(Cl)cc2)cc1	14.6 µM [falling, single point]	–
Cc1cc(C(=O)Nc2nc3c(C)cccc3s2)c(C)o1	1.46 µM [falling, full curve, poor fit]	–
N#Cc1ccccc1NC(=O)C1SC(=Nc2ccccc2)C(C(=O)Nc2ccc(Cl)cc2)=C1N (configuration not stated)	35.5 µM [falling, single point]	–
CCc1nnc(NC(=O)C2CCN(S(=O)(=O)Cc3ccccc3)CC2)s1	11.6 µM [rising, partial curve, poor fit]	–
CC(=O)C1=NN(c2ccccc2)C(c2cccs2)N1c1ccc(N(C)C)cc1 (configuration not stated)	32.6 µM [falling, partial curve, poor fit]	–
O=C(Nc1cccc(NC(=O)c2cccnc2)c1)c1cccnc1	6.51 µM [falling, partial curve]	–
Cc1ccc(C)c(NC(=O)c2ccccc2C(=O)c2ccccc2)c1	35.5 µM [falling, single point]	–
Cc1ccc(N(C(=O)CNC(=O)c2ccco2)C(C(=O)NC2CCCC2)c2cccnc2)c(C)c1 (configuration not stated)	6.31 µM [rising, single point]	–
COc1cc(NC(=O)c2cnc(N)s2)cc(C(=O)Nc2cccc(C(F)(F)F)c2)c1	6.31 µM [rising, single point]	–
CC12CCC(=O)N1C(C(=O)Nc1nc(-c3cc(F)ccc3F)cs1)CS2 (configuration not stated)	2.59 µM [falling, partial curve]	–
Cc1ccc2nc(SC(C)C(=O)NC3CCCc4ccccc43)[nH]c2c1 (configuration not stated)	32.6 µM [falling, single point]	–
CCn1nccc1C(=O)Nc1ccc(Cl)cn1	18.4 µM [falling, partial curve]	–
Cc1ccc(C(C(=O)NC2CCCCC2)N(C(=O)Cc2c[nH]c3ccccc23)c2ccccc2)o1 (configuration not stated)	1.26 µM [falling, full curve]	–
CCOC(=O)COc1ccccc1C1Nc2ccccc2C(=O)N1c1cccc(Cl)c1 (configuration not stated)	10 µM [falling, partial curve]	–
CCOC(=O)Cc1csc(NC(=O)c2ccc(C)cc2)n1	14.1 µM [falling, single point]	–
Cc1ccc(NC(=O)c2cccnc2)cc1S(=O)(=O)N1CCOCC1	7.31 µM [rising, partial curve, poor fit]	–
CCC(=O)Oc1ccc(/C(CC)=C(\CC)c2ccc(OC(=O)CC)cc2)cc1	0.206 µM [rising, full curve, poor fit]	–
Cc1ccccc1C(=O)N1CCN(c2ccc(NC(=O)c3cccs3)cc2)CC1	2 µM [falling, partial curve, poor fit]	–
